PubChem BioAssay AID1347131 (National Center for Advancing Translational Sciences (NCATS), 2019)
The campaign covered roughly 410,000 compounds. About 2,000 (0.49%) were called active. The shares of active, inactive and inconclusive entries below differ from those in the screen. The call rests on the fitted dose curve; tested in HEK293 reporter line. Potencies beside an inconclusive call are fits to weak or partial responses and may not hold up.

Assay: qHTS Assay for Foot and Mouth Disease Virus Antivirals: Primary Screen against the MLPCN compound library; further: nearly all actives have a fitted effect of over 55% in size
Settings: FMDV antiviral cell-based qHTS; series mostly up to 57.9 µM
Potency means the concentration at half of the fitted maximal effect.

| SMILES | Potency |
| --- | --- |
| CCCS(=O)(=O)N1CCC(C(=O)c2cccc(C(F)(F)F)c2)CC1 | inconclusive: 39.8 µM [inhibitor, partial curve, poor fit] |
| COc1ccc(-c2coc3c(C(=O)Nc4cccnc4)cccc23)c(C)c1 | inconclusive: 20 µM [inhibitor, partial curve, poor fit] |
| Cc1cc(C(=O)Nc2ccc3nc(C)sc3c2)c2ccccc2n1 | inconclusive: 12.6 µM [inhibitor, partial curve] |
| O=C(Nc1ccc(Cl)c(S(=O)(=O)N2CCOCC2)c1)c1ccc(Cl)nc1 | inconclusive: 17.8 µM [inhibitor, partial curve, poor fit] |
| CCCCCn1nc(C(=O)OCC(=O)c2c(N)n(C)c(=O)n(C)c2=O)c2ccccc2c1=O | inactive |
| CC(=O)Cc1cc(O)c2ccccc2c1OC(=O)c1ccc(Br)cc1 | inconclusive: 39.8 µM [inhibitor, partial curve, poor fit] |
| COC(=O)c1ccc(NC(=O)Cn2c(=O)nc(-c3ccccc3)c3ccccc32)cc1 | inconclusive: 11.2 µM [inhibitor, partial curve, poor fit] |
| CN(C)c1cccc(C(=O)Nc2nc3ccccc3[nH]2)c1 | inconclusive: 15.8 µM [inhibitor, single point] |
| Cc1cccc(Cn2c(=O)n(Cc3ccc4c(c3)OCO4)c(=O)c3oc4ccccc4c32)c1 | inconclusive: 1.58 µM [inhibitor, full curve] |
| Cc1ccc(CN2C(=O)CCC2C(=O)NC(C)C)cc1 (configuration not stated) | inconclusive: 7.08 µM [inhibitor, full curve] |
| COc1ccc(C2=Nn3c(nnc3-c3ccccc3OC)SC2)cc1OC1CCCC1 | inconclusive: 14.1 µM [inhibitor, partial curve, poor fit] |
| Cc1ccc(C)c(N2CCN(C(=O)C3CCN(c4nnc(N5CCCC5=O)s4)CC3)CC2)c1 | inconclusive: 25.1 µM [inhibitor, partial curve, poor fit] |
| O=C(NCc1cccnc1)/C(=C\c1ccc(-c2ccc(Br)cc2)o1)S(=O)(=O)c1ccccc1 | inconclusive: 3.16 µM [inhibitor, full curve, poor fit] |
| CC(C)Cc1ccc(C(C)C(=O)Nc2cccnc2)cc1 (configuration not stated) | inconclusive: 5.62 µM [inhibitor, partial curve, poor fit] |
| COc1cccc(NC(=O)C2(S(=O)(=O)c3ccc(Cl)cc3)CC2)c1 | inconclusive: 14.1 µM [inhibitor, partial curve, poor fit] |
| CCS(=O)(=O)N1Cc2ccccc2CC1C(=O)Nc1nc2ccccc2s1 (configuration not stated) | inconclusive: 17.8 µM [inhibitor, single point] |
| O=c1c2ccccc2c(-c2ccccc2)nn1-c1cc(Cl)cc(Cl)c1 | inconclusive: 10 µM [inhibitor, partial curve, poor fit] |
| CSc1ccccc1C(=O)NC(C)c1ccc(-n2ccnc2)cc1 (configuration not stated) | inconclusive: 2.82 µM [inhibitor, full curve] |
| Cc1c(NC(=O)c2cc3c(s2)-c2ccccc2OC3)cccc1[N+](=O)[O-] | inconclusive: 28.2 µM [inhibitor, partial curve, poor fit] |

A different layout for part of the listing above:
SMILES,Potency
COc1ccc(-c2coc3c(C(=O)Nc4cccnc4)cccc23)c(C)c1,"inconclusive: 20 µM [inhibitor, partial curve, poor fit]"
Cc1cc(C(=O)Nc2ccc3nc(C)sc3c2)c2ccccc2n1,"inconclusive: 12.6 µM [inhibitor, partial curve]"
O=C(Nc1ccc(Cl)c(S(=O)(=O)N2CCOCC2)c1)c1ccc(Cl)nc1,"inconclusive: 17.8 µM [inhibitor, partial curve, poor fit]"

Remaining list, next part

| SMILES | Potency |
| --- | --- |
| Cc1ccc(C2CC(C(F)(F)F)n3nc(C(=O)NCc4c(C)nn(C)c4C)c(Cl)c3N2)cc1 (configuration not stated) | inconclusive: 25.1 µM [inhibitor, partial curve, poor fit] |
| O=C(O)CCSc1nc2ccccc2s1 | inconclusive: 39.8 µM [inhibitor, partial curve, poor fit] |
| O=C(O)c1cccc(-n2c(/C=C/c3ccc([N+](=O)[O-])cc3)nc3ccccc3c2=O)c1 | inconclusive: 15.8 µM [inhibitor, partial curve] |
| O=C(NC1CCCC1)C1(c2ccccc2)CCN(S(=O)(=O)c2ccccc2)CC1 | inconclusive: 3.98 µM [inhibitor, partial curve] |
| Cc1cc(-c2cc(C(=O)NC3CCCC3)on2)nc(NC2CCCC2)n1 | inconclusive: 15.8 µM [inhibitor, partial curve] |
| NC(=O)c1ccsc1NC(=O)COC(=O)Cc1cccc2ccccc12 | inconclusive: 31.6 µM [inhibitor, partial curve, poor fit] |
| CC(=O)OCCNc1cc(SCc2ccco2)c2nonc2c1[N+](=O)[O-] | inconclusive: 31.6 µM [inhibitor, partial curve, poor fit] |
| CCOC(=O)C(=Cc1cn(C)c2ccc(S(=O)(=O)N(C)C)cc12)C(=O)OCC | inconclusive: 31.6 µM [inhibitor, partial curve, poor fit] |
| COc1cc2nc(N3CCN(C(=O)OCc4ccccc4)[C@H](C(=O)NC(C)(C)C)C3)nc(N)c2cc1OC | inconclusive: 3.16 µM [inhibitor, full curve] |
| Nc1cccc2c1C(=O)N(C(=O)/C=C/c1ccc(F)cc1)C2=O | inconclusive: 39.8 µM [inhibitor, partial curve, poor fit] |
| CC(=O)Nc1scc(C)c1-c1nc2ccccc2s1 | inactive |
| O=C(NN1C(=O)C2C3C=CC(C4CC34)C2C1=O)c1ccc(Br)cc1 (configuration not stated) | inconclusive: 35.5 µM [inhibitor, single point] |
| C(=C\c1sc(Nc2ccccc2)n[n+]1-c1ccccc1)/c1ccccc1 | inconclusive: 6.31 µM [inhibitor, partial curve, poor fit] |
| Cc1sc2nc(SCC(=O)N3CCOCC3)[nH]c(=O)c2c1C | inconclusive: 10 µM [inhibitor, partial curve] |
| O=C(OCCCN=C1NS(=O)(=O)c2ccccc21)C1CC(=O)N(c2ccc(Cl)cc2)C1 (configuration not stated) | inconclusive: 17.8 µM [inhibitor, partial curve, poor fit] |
| CCCCC(=O)N1CCCC(C(=O)OCC)C1 (configuration not stated) | inconclusive: 39.8 µM [inhibitor, partial curve, poor fit] |
| O=C(CSc1nc2ccccc2s1)N1c2ccccc2Sc2ccc(C(F)(F)F)cc21 | inconclusive: 17.8 µM [inhibitor, partial curve, poor fit] |
| Cc1ccc(-c2csc(NC(=O)C3=NN(c4ccccc4)C(=O)CC3)n2)cc1 | inconclusive: 28.2 µM [inhibitor, partial curve, poor fit] |
| COc1ccc2nc(Sc3c([N+](=O)[O-])nc(C)n3Cc3ccccc3)[nH]c2c1 | inconclusive: 15.8 µM [inhibitor, partial curve, poor fit] |

| SMILES | Potency |
| --- | --- |
| CCC(=O)NC(=S)Nc1cccc(Cl)c1N1CCCC1 | inconclusive: 39.8 µM [inhibitor, partial curve, poor fit] |
| CC(Oc1ccccc1)C(=O)Nc1ccc(C(=O)OCc2cc(=O)n3ccsc3n2)cc1 (configuration not stated) | inconclusive: 25.1 µM [inhibitor, partial curve, poor fit] |
| O=C(Nc1ccc2nn(-c3ccccc3)nc2c1)c1ccc2c(c1)OCCO2 | inconclusive: 25.1 µM [inhibitor, partial curve, poor fit] |
| Nc1ccc(-c2nc3ccc(N)cc3s2)cc1 | inconclusive: 20 µM [inhibitor, single point] |
| NC1=CC(=O)C(=O)c2cccnc21 | inconclusive: 39.8 µM [inhibitor, single point] |
| COc1cc(OC)cc(-c2c(-c3ccc(C(C)=O)cc3)c3cc(-c4cccc5[nH]ccc45)ccc3n2C)c1 | inconclusive: 2.82 µM [inhibitor, full curve] |
| CCCOc1ccc(C(=O)C(CCC(CNCC)C(=O)c2ccc(OCCC)cc2)CNCC)cc1 (configuration not stated) | inconclusive: 28.2 µM [inhibitor, partial curve, poor fit] |
| CCc1ccc(C(=O)/C=C/c2ccc([N+](=O)[O-])o2)cc1 | inconclusive: 35.5 µM [inhibitor, partial curve, poor fit] |
| CCOc1ccc(NC(=O)N2CCN(C(=O)c3nsc4ccccc34)CC2)cc1 | inconclusive: 14.1 µM [inhibitor, partial curve, poor fit] |
| CCOc1ccc(S(=O)(=O)N2CCC(n3c(C)nc4cccnc43)CC2)cc1 | inactive |
| Cc1cccc(N2CCN(C(=O)CCCSc3nc4ccccc4[nH]3)CC2)c1C | inconclusive: 35.5 µM [inhibitor, partial curve, poor fit] |
| COc1ccc(CCN2C(=O)CS/C2=N\NC(=O)c2ccc(C(C)(C)C)cc2)cc1OC | inconclusive: 31.6 µM [inhibitor, partial curve, poor fit] |
| Cc1ccccc1-c1ccc2ncnc(-n3ccnc3)c2c1 | inconclusive: 39.8 µM [inhibitor, partial curve, poor fit] |
| c1ccc(-c2cn3nc(-c4ccccc4)sc3n2)cc1 | inconclusive: 10 µM [inhibitor, partial curve, poor fit] |
| CCOC(=O)c1nn(-c2ccc3c(c2)OCCO3)cc1O | inconclusive: 39.8 µM [inhibitor, single point] |
| CCCCn1c(=O)[nH]c(=O)c2c1nc(CN1C(=O)c3ccccc3S1(=O)=O)n2CCC | inactive |
| CCOc1ccc(NC(=O)COn2nnc3ccc(S(=O)(=O)N4CCOCC4)cc32)cc1 | inconclusive: 25.1 µM [inhibitor, partial curve, poor fit] |
| Cc1sc2ncnc(N3CCC(C(=O)N(C)CC(=O)Nc4ccccc4Cl)CC3)c2c1C | inconclusive: 22.4 µM [inhibitor, partial curve, poor fit] |
| Cc1ccc(C)c(NS(=O)(=O)c2cc(C(=O)Nc3cccc(N(C)S(C)(=O)=O)c3)ccc2C)c1 | inconclusive: 39.8 µM [inhibitor, single point] |
